Measurements reported in PubChem BioAssay AID1671195 (Yale University, 2021)
In all, the deposit lists about 22,000 reagents; below is a random part of them. About 1,510 of them (6.9%) were called active. 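Active includes knockdowns raising or lowering LDL uptake; positive z-scores mean more uptake, negative mean less.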

Test: 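Genes whose knockdown alters LDL uptake in liver cancer cells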 (primary screen)
Cells: human Huh7 hepatoma cells
Knock-down reagent: siRNA pool against human genes, 18 nM
Timing: about 2 to 2.5 days of knockdown, then 8 h LDL uptake
Treatment: DiI-labelled LDL at 30 µg/ml for 8 h, in lipoprotein-deficient serum medium
Detection: 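Per-cell DiI-LDL intensity by automated imaging; well means scaled to the plate median and given as a robust z-score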
Scale: robust z-score: higher = more LDL uptake after knockdown
Hit rule: 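Active when two or more replicates show a robust z-score above 2 or below -2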

For NGEF (neuronal guanine nucleotide exchange factor), how do the results read?
robust z-score, replicate 1: -0.077; robust z-score, replicate 2: -0.591; robust z-score, replicate 3: 0.469; outcome: inactive

For CACNG8 (calcium voltage-gated channel auxiliary subunit gamma 8), what does the deposit list?
robust z-score, replicate 1: -0.524; robust z-score, replicate 2: -0.725; robust z-score, replicate 3: -0.254; outcome: inactive

What is on record for ABCF1 (ATP binding cassette subfamily F member 1)?
robust z-score, replicate 1: -0.256; robust z-score, replicate 2: 0.221; robust z-score, replicate 3: -0.413; outcome: inactive

How did the screen score ERCC1 (ERCC excision repair 1, endonuclease non-catalytic subunit)?
robust z-score, replicate 1: -1.23; robust z-score, replicate 2: -0.935; robust z-score, replicate 3: -0.889; outcome: inactive

What is on record for LCLAT1 (lysocardiolipin acyltransferase 1)?
robust z-score, replicate 1: -0.427; robust z-score, replicate 2: -1.14; robust z-score, replicate 3: -1.59; outcome: inactive

For CKS1B (CDC28 protein kinase regulatory subunit 1B), what was measured?
robust z-score, replicate 1: -0.0721; robust z-score, replicate 2: -0.155; robust z-score, replicate 3: -0.308; outcome: inactive

For RLN3 (relaxin 3), what was measured?
robust z-score, replicate 1: -1.64; robust z-score, replicate 2: -1.37; robust z-score, replicate 3: -0.891; outcome: inactive

How did the screen score LOC388681 (retired record)?
robust z-score, replicate 1: -0.29; robust z-score, replicate 2: -0.876; robust z-score, replicate 3: -0.972; outcome: inactive

How did the screen score ZFP90 (ZFP90 zinc finger protein)?
robust z-score, replicate 1: -0.753; robust z-score, replicate 2: -0.948; robust z-score, replicate 3: -0.955; outcome: inactive

For PTN (pleiotrophin), how do the results read?
robust z-score, replicate 1: -0.0401; robust z-score, replicate 2: 0.415; robust z-score, replicate 3: 0.124; outcome: inactive

What did the screen give for SPTBN2 (spectrin beta, non-erythrocytic 2)?
robust z-score, replicate 1: -1.63; robust z-score, replicate 2: -2.33; robust z-score, replicate 3: -0.832; outcome: inactive

How did the screen score PILRB (paired immunoglobin like type 2 receptor beta)?
robust z-score, replicate 1: -3.48; robust z-score, replicate 2: -1.45; robust z-score, replicate 3: -0.504; outcome: inactive

Which result is listed for TNFAIP3 (TNF alpha induced protein 3)?
robust z-score, replicate 1: -1.13; robust z-score, replicate 2: -1.41; robust z-score, replicate 3: -1.5; outcome: inactive

With RCOR3 (REST corepressor 3), what does the deposit list?
robust z-score, replicate 1: 0.839; robust z-score, replicate 2: -1.13; robust z-score, replicate 3: 0.808; outcome: inactive

For PLXNC1 (plexin C1), what does the deposit list?
robust z-score, replicate 1: 1.53; robust z-score, replicate 2: 1.18; robust z-score, replicate 3: 0.818; outcome: inactive

For LIMS3 (LIM zinc finger domain containing 3), what does the deposit list?
robust z-score, replicate 1: 0.274; robust z-score, replicate 2: 0.954; robust z-score, replicate 3: 1.04; outcome: inactive

Sorted by “robust z-score, replicate 1” (descending): some entries from above
CKS1B (CDC28 protein kinase regulatory subunit 1B) | robust z-score, replicate 1 = -0.0721; robust z-score, replicate 2 = -0.155; robust z-score, replicate 3 = -0.308; outcome = inactive
RLN3 (relaxin 3) | robust z-score, replicate 1 = -1.64; robust z-score, replicate 2 = -1.37; robust z-score, replicate 3 = -0.891; outcome = inactive
